The supplement of paper PMC4683952
Structures can show the parent of a compound that is named as a salt. Among all 1,200 compounds or so, about 50 (4%) showed activity. No stated cut-off is given here; in the data, all actives reach 1.3 or more but so do some inactives. This is one part of the list.

tested on: Lgr5 (MarsCy1-Lgr5-EGFP, U2OS); assay: cell-surface Lgr5 expression (SCi1 fluorescence, background-subtracted) relative to WT DMSO (fold of DMSO control); higher = more Lgr5 at the plasma membrane, active = hit call of the paper; conditions: U2OS MarsCy1-Lgr5-EGFP stable; treatment time: overnight; 16 µM; library: Johns Hopkins Clinical Compound Library

Row | SMILES | cell-surface Lgr5 expression
1 | COc1c(N2CCNC(C)C2)c(F)cc2c(=O)c(C(=O)O)cn(C3CC3)c12 (centres undefined) [Gatifloxacin] | inactive: 1.01
2 | OCc1ccccc1O [Salicyl alcohol (2-Hydroxybenzyl alcohol)] | inactive: 0.961
3 | CN1Cc2c(N)cccc2C(c2ccccc2)C1 (centres undefined) [Nomifensine maleate] | inactive: 0.436
4 | FC(F)(F)COCC(F)(F)F [Flurothyl (2,2,2-Trifluoroethyl ether)] | inactive: 0.97
5 | O=C1NC(=O)C(c2ccccc2)(c2ccccc2)N1 [Phenytoin (5,5Diphenylhydantoin sodium salt)] | inactive: 0.534
6 | O=C1CCC(c2ccccc2)(C2CCN(Cc3ccccc3)CC2)C(=O)N1 (centres undefined) [Benzetimide] | inactive: 1.09
7 | CCCCCCCCCCCCCCOS(=O)(=O)O [Tetradecyl sulfate, sodium salt, 95%] | inactive: 1.28
8 | CN[C@H](CC(C)C)C(=O)N[C@H]1C(=O)N[C@@H](CC(N)=O)C(=O)N[C@H]2C(=O)N[C@H]3C(=O)N[C@H](C(=O)N[C@H](C(=O)O)c4cc(O)cc(O)c4-c4cc3ccc4O)[C@H](O)c3ccc(c(Cl)c3)Oc3cc2cc(c3O[C@@H]2O[C@H](CO)[C@@H](O)[C@H](O)[C@H]2O[C@H]2C[C@](C)(N)[C@H](O)[C@H](C)O2)Oc2ccc(cc2Cl)[C@H]1O [Vancomycin HCL hydrate] | inactive: 1.14
9 | O=C(CCCl)NCc1ccccc1 [Beclamide (n-benzyl 3 chloropropionamide)] | inactive: 0.654
10 | NC(=O)c1ncn([C@@H]2O[C@H](CO)[C@@H](O)[C@H]2O)n1 [Ribavirin] | inactive: 0.899
11 | CC(C)COCC(CN(Cc1ccccc1)c1ccccc1)N1CCCC1 (centres undefined) [Bepridil] | active: 1.31
12 | O=C(O)c1cc(=O)c2ccccc2o1 | inactive: 0.949
13 | NS(=O)(=O)c1cc(C(=O)O)c(NCc2ccco2)cc1Cl [Furosemide] | inactive: 1.11
14 | Cc1cc(C2CCCCC2)n(O)c(=O)c1 [Ciclopirox olamine] | inactive: 0.528
15 | COc1cc(C(=O)NS(=O)(=O)c2ccccc2C)ccc1Cc1cn(C)c2ccc(NC(=O)OC3CCCC3)cc12 [Zafirlukast] | inactive: 1.12
16 | CCO [Ethanol] | inactive: 0.993
17 | C=C[C@H]1CN2CC[C@H]1C[C@H]2[C@H](O)c1ccnc2ccc(OC)cc12.NC(N)=O [Quinine urea hydrochloride] | inactive: 1.39
18 | O=C(Nc1ccc(C(=O)O)c(O)c1)c1ccccc1 | inactive: 0.869
19 | CCCCOC(=O)c1ccc(N)cc1 [Butamben (n-butyl p aminobenzoate)] | inactive: 1
20 | CCCCC1=NC2(CCCC2)C(=O)N1Cc1ccc(-c2ccccc2-c2nnn[nH]2)cc1 [Irbesartan] | inactive: 0.824
21 | CC(C)COC(=O)OCN1C(=O)CN(CCN2CC(=O)N(COC(=O)OCC(C)C)C(=O)C2)CC1=O [Sobuzoxane] | inactive: 0.958
22 | CCCCCCn1c(=O)c2c(ncn2C)n(C)c1=O [Pentifylline] | inactive: 1.18
23 | COCC1=C(C(=O)OC(C)OC(=O)OC(C)C)N2C(=O)[C@@H](NC(=O)/C(=N\OC)c3csc(N)n3)[C@H]2SC1 (some centres undefined) [Cefpodoxime proxetil] | inactive: 0.424

Row | SMILES | cell-surface Lgr5 expression
24 | O=C(CCCN1CCC(O)(c2ccc(Br)cc2)CC1)c1ccc(F)cc1 [Bromperidol] | inactive: 1.23
25 | CO[C@@]1(NC(=O)Cc2cccs2)C(=O)N2C(C(=O)O)=C(COC(N)=O)CS[C@@H]21 [Cefoxitin] | inactive: 1.07
26 | CC(=O)c1ccc2c(c1)N(CCCN1CCC(CCO)CC1)c1ccccc1S2 [Piperacetazine] | inactive: 1.01
27 | OC[C@@H](O)[C@H](O)[C@@H](O)CO [Xylitol] | inactive: 1.15
28 | ClC(Cl)(c1ccccc1)c1ccccc1 [Dichlorodiphenyl-methane] | inactive: 1.03
29 | COc1cc2c(cc1OC)C(=O)C(CC1CCN(Cc3ccccc3)CC1)C2 (centres undefined) [Donepezil hydrochloride] | inactive: 0.531
30 | CCCCC(CC)CN1CN(CC(CC)CCCC)CC(C)(N)C1 (centres undefined) [Hexetidine] | inactive: 1.11
31 | O=S(=O)([O-])[O-].O=S(=O)([O-])[O-].[Al+3].[K+] [Aluminum potassium sulfate] | inactive: 0.629
32 | O.O.O.O.O.O.O.O=S(=O)([O-])[O-].[Mg+2] [Magnesium sulfate] | inactive: 1.04
33 | CN1C(C(=O)Nc2ccccn2)=C(O)c2sccc2S1(=O)=O [Tenoxicam] | inactive: 0.969
34 | C[C@]12C=CC(=O)C=C1CC[C@@H]1[C@@H]2[C@@H](O)C[C@@]2(C)[C@H]1CC[C@]2(O)C(=O)COP(=O)(O)O [Prednisolone sodium phosphate] | inactive: 1.25
35 | C[C@]12C=CC(=O)C=C1CC[C@@H]1[C@@H]2[C@@H](O)C[C@@]2(C)[C@H]1CC[C@]2(O)C(=O)COP(=O)(O)O [Prednisolone 21-phosphate, disodium salt] | active: 1.41
36 | N=C(N)N [Guanidine hydrochloride] | inactive: 0.767
37 | C=C[C@H]1CN2CC[C@H]1C[C@@H]2[C@@H](O)c1ccnc2ccc(OC)cc12 [Quinidine sulfate dihydrate] | inactive: 1.24
38 | CC(=O)O[C@]1(C(C)=O)CC[C@H]2[C@@H]3CCC4=CC(=O)CC[C@]4(C)[C@H]3CC[C@@]21C [Hydroxyprogesterone acetate (17alpha-Acetoxyprogesterone)] | inactive: 1.21
39 | Cn1c(=O)c2[nH]cnc2n(C)c1=O [Aminophylline] | inactive: 0.906
40 | Cn1c(=O)c2[nH]cnc2n(C)c1=O [Oxtriphylline] | inactive: 0.861
41 | C#C[C@]1(O)CC[C@H]2[C@@H]3CCc4cc(OC5CCCC5)ccc4[C@H]3CC[C@@]21C [Quinestrol (17α-Ethynylestradiol 3-cyclopentyl ether)] | inactive: 1.09
42 | Cc1ccnc2c1NC(=O)c1cccnc1N2C1CC1 [Nevirapine] | inactive: 0.832
43 | Cc1[nH]c(=O)c(C#N)cc1-c1ccncc1 [Milrinone] | inactive: 1.08
44 | C[Se]CCC(N)C(=O)O [Seleno-D, L-methionine] | inactive: 1.08
45 | O=C(Nc1ccccc1)c1ccccc1O [Salicylanilide] | inactive: 0.974
46 | CC(=O)N[C@@H](CCC(N)=O)C(=O)O [Aceglutamide (N-acetyl-L-glutamine)] | inactive: 1.2

Row | SMILES | cell-surface Lgr5 expression
47 | CC(=O)NO [Acetohydroxamic acid] | inactive: 0.848
48 | CN1CCCN=C1COC(=O)C(O)(c1ccccc1)C1CCCCC1 (centres undefined) [Oxyphencyclimine] | inactive: 1.15
49 | Cc1ccc(/C(=C\CN2CCCC2)c2cccc(/C=C/C(=O)O)n2)cc1 [Acrivastine] | inactive: 1.15
50 | Cn1c(=O)c2c(ncn2CC(=O)O)n(C)c1=O [Theophylline-7-acetic acid] | inactive: 1.14
51 | CSc1ccc(C(=O)c2[nH]c(=O)[nH]c2C)cc1 [Enoximone] | inactive: 1.12
52 | Cc1cc(C(=O)NNCc2ccccc2)no1 [Isocarboxazid] | inactive: 0.572
53 | COc1cc(OC)c(C(=O)CCCN2CCCC2)c(OC)c1 [Buflomedil] | inactive: 1.08
54 | N#CC(c1ccc(Cl)cc1)c1c(Cl)cc(-n2ncc(=O)[nH]c2=O)cc1Cl (centres undefined) [Diclazuril] | inactive: 0.92
55 | CCN1C(=O)NC(c2ccccc2)C1=O (centres undefined) [Ethotoin] | inactive: 0.854
56 | CN1CCC(=C2c3ccccc3CC(=O)c3sccc32)CC1 [Ketotifen] | inactive: 1.07
57 | COC(=O)c1ccccc1O [Methyl salicylate] | inactive: 0.981
58 | COc1ccc2c(c1)N(C[C@H](C)CN(C)C)c1ccccc1S2 [Methotrimeprazine] | inactive: 1.17
59 | OC(CCCN1CCC(O)(c2ccc(Cl)cc2)CC1)c1ccc(F)cc1 (centres undefined) [Haloperidol metabolite II] | inactive: 1.18
60 | Cn1ccnc1S [Methimazole] | inactive: 0.738
61 | Nc1c(Br)cc(Br)cc1CN[C@H]1CC[C@H](O)CC1 [Ambroxol hydrochloride] | active: 1.54
62 | Oc1ccc(Cl)c2cccnc12 [Cloxyquin (5-chloro-8-hydroxy-quinoline)] | inactive: 0.745
63 | Nc1ncn([C@H]2C[C@H](O)[C@@H](CO)O2)c(=O)n1 [Decitabine (5-aza-2-deoxycytidine)] | active: 1.47
64 | CC(C)(C(=O)c1cccnc1)c1cccnc1 [Metyrapone (2-methyl-1,2-di-3-pyridyl 1-propanone)] | inactive: 0.848
65 | CCCC(=O)O[C@]1(C(=O)CCl)[C@H](C)C[C@@H]2[C@@H]3CCC4=CC(=O)C=C[C@]4(C)[C@]3(F)C(=O)C[C@@]21C [Clobetasone butyrate] | inactive: 1
66 | CC(=O)N(O)CCCCCNC(=O)CCC(=O)N(O)CCCCCNC(=O)CCC(=O)N(O)CCCCCN [Deferoxamine mesylate] | inactive: 0.865
67 | CC(C)/N=c1\cc2n(-c3ccc(Cl)cc3)c3ccccc3nc-2cc1Nc1ccc(Cl)cc1 [Clofazimine] | inactive: 1.55
68 | CCN[C@H]1C[C@H](C)S(=O)(=O)c2sc(S(N)(=O)=O)cc21 [Dorzolamide] | inactive: 0.632
69 | CO[C@@]1(NC(=O)CSCC#N)C(=O)N2C(C(=O)O)=C(CSc3nnnn3C)CS[C@@H]21 [Cefmetazole] | inactive: 0.929

Reprinted at random: four records from the list
Row | SMILES | cell-surface Lgr5 expression
50 | Cn1c(=O)c2c(ncn2CC(=O)O)n(C)c1=O [Theophylline-7-acetic acid] | inactive: 1.14
64 | CC(C)(C(=O)c1cccnc1)c1cccnc1 [Metyrapone (2-methyl-1,2-di-3-pyridyl 1-propanone)] | inactive: 0.848
68 | CCN[C@H]1C[C@H](C)S(=O)(=O)c2sc(S(N)(=O)=O)cc21 [Dorzolamide] | inactive: 0.632
59 | OC(CCCN1CCC(O)(c2ccc(Cl)cc2)CC1)c1ccc(F)cc1 (centres undefined) [Haloperidol metabolite II] | inactive: 1.18
